Where a name gives a salt, the structure may show the parent alone. ± gives the standard deviation of the averaged measurements. This is one part of the list. Values are raw readings; no control value is given beside them.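 Ribosome-assembly readouts in HeLa cells were imaged via ENP1 staining, with or without export block, or inducible tagged ribosomal protein reporters. Machine learning classified per-cell signal location versus solvent (DMSO) controls. Hits surpassed the DMSO false-positive mean by five standard deviations and were visually confirmed; three biological replicates.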

The experiment concerns HeLa K (ENP1 immunofluorescence, +LMB). Put plainly: fraction of cells with nucleolar or nucleolar/nucleoplasmic ENP1 signal (MainHitrate); higher = more cells with nucleolar/nuclear readout signal (for ENP1 -LMB: less RNAPI inhibition; for +LMB ENP1 and RP reporters: stronger nuclear/nucleolar retention, i.e. ribosome biogenesis defect). Particulars: concentration: 1 µM; treatment time: 6 h; ENP1 +LMB; leptomycin B: 20 nM, last 1.5 h.
In turn, `CN1Cc2c(N)cccc2C(c2ccccc2)C1` (centres undefined) [Nomifensine Maleate] yielded a fraction of 0.132 ± 0.17.

Consider `COc1ccccc1OCC(O)COC(N)=O` (centres undefined) [Methocarbamol (Robaxin)], for which the fraction was found to be 0.0672 ± 0.074. In the case of `CCCSc1ccc2[nH]c(NC(=O)OC)nc2c1` [Albendazole (Albenza)] it was 0.102 ± 0.11; in that of `CCCCCCCCCCCCCCCC[N+](C)(C)C` [Cetrimonium Bromide], 0.0283 ± 0.024. `CCOc1nc2cccc(C(=O)O)c2n1Cc1ccc(-c2ccccc2-c2nnn[nH]2)cc1` [Candesartan (Atacand)] registered a fraction of 0.095 ± 0.096. Turning to `O=C(O)/C=C/c1ccc(Cn2ccnc2)cc1` [Ozagrel HCl], the fraction stood at 0.133 ± 0.21. `C=C(c1ccc(C(=O)O)cc1)c1cc2c(cc1C)C(C)(C)CCC2(C)C` [Bexarotene] displayed a fraction of 0.104 ± 0.16. As to `Cc1c(Nc2ncccc2C(=O)O)cccc1C(F)(F)F` [Flunixin meglumin], the fraction came out at 0.077 ± 0.098. The molecule `Fc1ccc(C(c2ccc(F)cc2)N2CCN(C/C=C/c3ccccc3)CC2)cc1` [Flunarizine 2HCl] registered a fraction of 0.148 ± 0.22. Molecule `O=C1CCc2ccc(OCCCCN3CCN(c4cccc(Cl)c4Cl)CC3)cc2N1` [Aripiprazole (Abilify)] yielded a fraction of 0.0683 ± 0.084. For `CCN[C@H]1C[C@H](C)S(=O)(=O)c2sc(S(N)(=O)=O)cc21` [Dorzolamide HCL], the fraction amounted to 0.153 ± 0.13. Regarding `C/C(O)=C(\C#N)C(=O)Nc1ccc(C(F)(F)F)cc1` [Teriflunomide], the fraction worked out at 0.0488 ± 0.059.

With `C[N+](C)(C)CC(O)CC(=O)[O-]` (racemic) [DL-Carnitine hydrochloride], the fraction amounted to 0.136 ± 0.2. The result for `O=C(C1CCCCC1)N1CC(=O)N2CCc3ccccc3C2C1` (centres undefined) [Praziquantel (Biltricide)] reads 0.0629 ± 0.04; that for `CC(C)(C)C(=O)OCOP(=O)(COCCn1cnc2c(N)ncnc21)OCOC(=O)C(C)(C)C` [Adefovir Dipivoxil (Preveon, Hepsera)], 0.114 ± 0.14; that for `Cc1onc(-c2c(Cl)cccc2Cl)c1C(=O)N[C@@H]1C(=O)N2[C@@H]1SC(C)(C)[C@@H]2C(=O)O` [Dicloxacillin Sodium], 0.107 ± 0.17. In the case of `CN(C/C=C/C#CC(C)(C)C)Cc1cccc2ccccc12` [Terbinafine (Lamisil, Terbinex)] it was 0.104 ± 0.093; in that of `CC(C)/N=c1\cc2n(-c3ccc(Cl)cc3)c3ccccc3nc-2cc1Nc1ccc(Cl)cc1` [Clofazimine], 0.113 ± 0.17. In the case of `Cc1noc(NS(=O)(=O)c2ccc(N)cc2)c1C` [Sulfisoxazole] it was 0.109 ± 0.14; in that of `CN1C2=CC(=O)/C(=N\NC(N)=O)C=C2CC1S(=O)(=O)O` (centres undefined) [Carbazochrome sodium sulfonate], 0.144 ± 0.12; in that of `CCCNC(C)C(=O)Nc1ccccc1C` (centres undefined) [Prilocaine], 0.098 ± 0.097. On to `CCN(CC)CCOc1ccc(C(=C(Cl)c2ccccc2)c2ccccc2)cc1` [Clomifene citrate (Serophene)], for which the fraction came out at 0.112 ± 0.17. The result for `CN(C)[C@@H](CCOc1cccc2ccccc12)c1ccccc1` [Dapoxetine hydrochloride (Priligy)] reads 0.113 ± 0.15; that for `CC=CC1=C(C(=O)O)N2C(=O)[C@@H](NC(=O)[C@H](N)c3ccc(O)cc3)[C@H]2SC1` [Cefprozil hydrate (Cefzil)], 0.145 ± 0.23. For `CCN[C@H]1CN(CCCOC)S(=O)(=O)c2sc(S(N)(=O)=O)cc21` [Brinzolamide], the fraction was 0.18 ± 0.29. In the case of `NC[C@H]1CC[C@H](C(=O)O)CC1` [Tranexamic acid (Transamin)] it was 0.083 ± 0.1. The result for `Clc1ccc(COC(Cn2ccnc2)c2ccc(Cl)cc2Cl)c(Cl)c1` (centres undefined) [Miconazole (Monistat)] reads 0.151 ± 0.23; that for `C#C[C@]1(O)CC[C@H]2[C@@H]3CCc4cc(OC)ccc4[C@H]3CC[C@@]21C` [Mestranol], 0.118 ± 0.16. For `Cc1c(C(=O)NN2CCCCC2)nn(-c2ccc(Cl)cc2Cl)c1-c1ccc(Cl)cc1`, the fraction came to 0.0854 ± 0.12. The result for `CN(Cc1cc(Br)cc(Br)c1N)C1CCCCC1` [Bromhexine HCl] reads 0.0719 ± 0.1. `Nc1ccc(C(=O)O)c(O)c1` [Aminosalicylate sodium] showed a fraction of 0.0717 ± 0.08. The result for `CC(=O)O[C@]1(C(C)=O)CC[C@H]2[C@@H]3C=C(C)C4=CC(=O)CC[C@]4(C)[C@H]3CC[C@@]21C` [Megestrol Acetate] reads 0.108 ± 0.076; that for `CCCCOc1cc(C(=O)OCCN(CC)CC)ccc1N` [Oxybuprocaine HCl], 0.0931 ± 0.14.

Molecule `CC(C[N+](C)(C)C)OC(N)=O` (centres undefined) [Bethanechol chloride] showed a fraction of 0.171 ± 0.27. For `Cc1cc(C2CCCCC2)n(O)c(=O)c1` [Ciclopirox (Penlac)], the fraction is 0.106 ± 0.13.

Molecule `CC(C)c1nc(CN(C)C(=O)N[C@@H](CCN2CCOCC2)C(=O)N[C@H](CC[C@H](Cc2ccccc2)NC(=O)OCc2cncs2)Cc2ccccc2)cs1` [Cobicistat (GS-9350)] displayed a fraction of 0.0532 ± 0.065. The molecule `CC(NCCc1ccc(O)cc1)C(O)c1ccc(O)cc1` (centres undefined) [Ritodrine hydrochloride (Yutopar)] showed a fraction of 0.136 ± 0.2.

`CC(=O)OCC(=O)[C@@]12N=C(C)O[C@@H]1C[C@H]1[C@@H]3CCC4=CC(=O)C=C[C@]4(C)[C@H]3[C@@H](O)C[C@@]12C` [Deflazacort (Calcort)] returned a fraction of 0.11 ± 0.14. The result for `CC1CCc2c(N3CCC(O)CC3)c(F)cc3c(=O)c(C(=O)O)cn1c23` (centres undefined) [Nadifloxacin] reads 0.048 ± 0.051.

(Values after the supplement of paper PMC12542422.)
